Laboratory results published in paper PMC8709211 (Pharmaceutics, 2021).
Plain letter strings leave the end groups untold.

Experiment: general procedure: Fmoc solid-phase peptide synthesis; Rink amide resin; Oxyma/DIC; HATU/DIPEA
Conditions: whole synthesis, UV-chromatogram (HPLC), 10-60% ACN in water (0.1% TFA) over 15 min

| Substance | final HPLC purity |
| --- | --- |
| KK-GLRKRLRKFRNKIKEK | >95% |
| KK-LLIILRRRIRKQAHAHSK | >99% |
| KKKK-GLRKRLRKFRNKIKEK | >98% |
| CB-KKKK-LLIILRRRIRKQAHAHSK | >97% |
| K-GLRKRLRKFRNKIKEK | >99% |
| 1LLIILRRRIRKQAHAHSK18 | >97% |
| GLRKRLRKFRNKIKEK | >99% |
| K-LLIILRRRIRKQAHAHSK | >99% |
| KKK-LLIILRRRIRKQAHAHSK | >98% |
| 1GLRKRLRKFRNKIKEK16 | >99% |
| KKKK-LLIILRRRIRKQAHAHSK | >99% |

Same assay, conditions: whole synthesis, UV-chromatogram (HPLC), 10-60% ACN in water (0.1% TFA) over 15 min; run 1

| Substance | final HPLC purity |
| --- | --- |
| CB-KKKK-GLRKRLRKFRNKIKEK [CB5-sC18] | >96% |
| CB-KKKK-GLRKRLRKFRNKIKEK [CB5-CF-sC18] | >97% |
| KKK-GLRKRLRKFRNKIKEK [CB3-sC18] | >97% |
| KKK-GLRKRLRKFRNKIKEK [CB3-CF-sC18] | >96% |
